# According to PubChem BioAssay AID1487 (National Center for Advancing Translational Sciences (NCATS), 2009):
# This is one part of the list. These are further read-outs of the screen, such as a control signal, another cell line or another target. No call is given for them. Most of these compounds were active or inconclusive in the main read-out, so they are no random draw. Potencies come from curve fits of mixed quality, noted in brackets.
# Experiment: qHTS Assay for Modulators of Lamin A Splicing
# Conditions: HeLa LMNA splicing GFP/RFP minigene ratio, 48 h
# Summary of the method: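 Read-out is the ratio of GFP to DsRed2 object intensity, acquired by 488 nm laser-scanning cytometry on HeLa lamin A-EGFP minigene reporter cells. Compound incubation 48 hrs at 37 °C in Opti-MEM with 2% FBS; DMSO 0.5% final.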
# [1] = measured here: GFP splicing reporter channel
# [2] = measured here: RFP viability control channel
compound,measurement,setting,value
CN(C)c1nc(NCc2ccccc2)nc(N/N=C/c2ccc3c(c2)OCO3)n1,AC50,[1],"31.6 µM [rising, single point]"
same,AC50,[2],"35.5 µM [rising, single point]"
O=C(CN1C(=O)NC2(CCCCCC2)C1=O)N1CCN(S(=O)(=O)c2ccc(Cl)cc2)CC1,AC50,[1],"0.00501 µM [falling, full curve]"
same,AC50,[2],"0.00891 µM [falling, full curve]"
Cc1cc[n+](C(C)C(=O)c2ccc(-c3ccccc3)cc2)cc1 (centres undefined),AC50,[2],"11.2 µM [rising, partial curve]"
CCNc1ccc(C(=O)OCC)cc1NC(=O)c1cccc(S(=O)(=O)N(C)c2ccccc2)c1,AC50,[2],"3.55 µM [rising, full curve, poor fit]"
CCN(CC)CCOC(=O)[C@@H](c1ccccc1)C1CCCCC1,AC50,[1],"0.282 µM [falling, full curve]"
same,AC50,[2],"0.251 µM [falling, full curve]"
CC(C)C(NC(=O)OC(C)(C)C)C(=O)N1CCCC1C(=O)NC(Cc1ccccc1)C(N)=O (centres undefined),AC50,[1],"12.6 µM [rising, single point]"
COc1ccc(OC)c(/C=C/C(=O)N(C)CC(=O)Nc2ccc(C)cc2)c1,AC50,[1],"10 µM [rising, partial curve]"
CCn1cc(C(=O)NCc2ccc3c(c2)OCO3)c2cc(OC)c(OC)cc2c1=O,AC50,[1],"0.891 µM [falling, full curve]"
same,AC50,[2],"0.891 µM [falling, full curve]"
COc1ccc(-c2cnnn2-c2ccc(NC(=O)/C=C/c3ccc(OC)c(OC)c3)cc2)cc1,AC50,[1],"17.8 µM [falling, single point]"
CCOc1ccccc1NC(=O)C(OC(=O)c1ccc(O)cc1)c1ccccc1 (centres undefined),AC50,[2],"12.6 µM [rising, partial curve]"
O=C(NCc1ccco1)C1CCN(S(=O)(=O)N2CCC3(CC2)OCCO3)CC1,AC50,[2],"1.26 µM [falling, single point]"
COc1cccc(CSc2nc3n(n2)C(CC(C)C)C(C(=O)Nc2ccccc2OC)=C(C)N3)c1 (centres undefined),AC50,[1],"15.8 µM [falling, single point]"
same,AC50,[2],"15.8 µM [falling, single point]"
COCC(=O)Nc1c(C(=O)Nc2ccc3c(c2)OCCO3)oc2ccccc12,AC50,[1],"11.2 µM [falling, partial curve, poor fit]"
same,AC50,[2],"35.5 µM [falling, partial curve, poor fit]"
NC(=S)N/N=C/c1ccc2ccccc2c1,AC50,[2],"5.01 µM [falling, single point]"
CCOC(=O)C1CCN(C(=O)COc2cc(C)c(Br)cc2C)CC1,AC50,[1],"15.8 µM [rising, single point]"
O=C(CN1CCOCC1)Nc1ncc(Cc2cccc3ccccc23)s1,AC50,[2],"12.6 µM [rising, partial curve]"
Cc1ccc(/C(=C\CN2CCCC2)c2ccccn2)cc1,AC50,[2],"1.41 µM [rising, full curve]"
Cc1ccc(/C=N/NC(=O)CSc2nc3ccccc3n2Cc2ccc(Cl)cc2)o1,AC50,[1],"10 µM [rising, partial curve, poor fit]"
same,AC50,[2],"12.6 µM [rising, single point]"
Cc1cc(C)cc(NS(=O)(=O)c2ccc3[nH]cc(C(=O)N4CCc5ccccc54)c(=O)c3c2)c1,AC50,[2],"10 µM [rising, partial curve]"
COc1ccc(C(=O)N2CCN(c3ccc(C)cc3C)CC2)cc1OC,AC50,[1],"35.5 µM [rising, single point]"
same,AC50,[2],"35.5 µM [rising, single point]"
O=C(CC(SCCO)c1ccc(F)cc1)c1ccco1 (centres undefined),AC50,[1],"14.1 µM [falling, single point]"
same,AC50,[2],"17.8 µM [falling, single point]"
O=C(NCc1ccco1)C1(c2ccccc2)CCCC1,AC50,[2],"35.5 µM [rising, single point]"
O=C1CC(c2c(F)cccc2Cl)C(n2cncn2)C(O)=C1C1NCCc2ccccc21 (centres undefined),AC50,[1],"1.58 µM [rising, full curve]"
COc1ccccc1-c1nn2c(C3COc4ccccc4O3)nnc2s1 (centres undefined),AC50,[1],"7.94 µM [rising, partial curve, poor fit]"
CCN(Cc1nc(-c2ccc(OC)cc2)oc1C)S(=O)(=O)c1ccc(C)cc1,AC50,[1],"3.16 µM [rising, partial curve, poor fit]"
same,AC50,[2],"3.55 µM [rising, full curve, poor fit]"
Cc1ccc(NC(=O)CN2CCSc3ccc(S(=O)(=O)N4CCCC4)cc32)cc1,AC50,[1],"35.5 µM [rising, single point]"
same,AC50,[2],"14.1 µM [rising, single point]"
CC(C)(C)c1ccc(C(=O)Nc2nnc(Cc3c[nH]c4ccccc34)s2)cc1,AC50,[1],"5.62 µM [rising, single point]"
same,AC50,[2],"5.62 µM [rising, single point]"
COc1cc(-c2cc(OC)c3c(C)oc(C)c3c(=O)c2)ccc1O,AC50,[1],"12.6 µM [rising, single point]"
same,AC50,[2],"14.1 µM [rising, single point]"
COc1ccc(NC(=O)C23CC4CC(C2)CC(c2ccc(C)cc2)(C4)C3)cc1,AC50,[2],"20 µM [rising, single point]"
Cc1cc(C)nc(SCc2ccc(C(=O)N/N=C/c3cccc(O)c3O)cc2)n1,AC50,[2],"28.2 µM [rising, single point]"
COCCn1c(SCC(=O)Nc2ccc(Cl)cn2)nnc1-c1ccncc1,AC50,[1],"7.08 µM [falling, partial curve, poor fit]"
same,AC50,[2],"0.398 µM [falling, partial curve, poor fit]"
CC1CCN(c2c(NCc3ccc(C(=O)N4c5ccccc5CC4C)cc3)c(=O)c2=O)CC1 (centres undefined),AC50,[2],"35.5 µM [rising, single point]"
Cc1ccc(-c2ccc(C(=O)Nc3ccccc3)o2)c2ccccc12,AC50,[1],"15.8 µM [rising, single point]"
same,AC50,[2],"17.8 µM [rising, single point]"
CCOc1ccc(NC2OC(C)C(O)C(O)C2O)c([N+](=O)[O-])c1 (centres undefined),AC50,[2],"0.794 µM [falling, full curve, poor fit]"

# 3 records drawn at random from those above:
compound,measurement,setting,value
NC(=S)N/N=C/c1ccc2ccccc2c1,AC50,[2],"5.01 µM [falling, single point]"
COc1cc(-c2cc(OC)c3c(C)oc(C)c3c(=O)c2)ccc1O,AC50,[1],"12.6 µM [rising, single point]"
CCn1cc(C(=O)NCc2ccc3c(c2)OCO3)c2cc(OC)c(OC)cc2c1=O,AC50,[2],"0.891 µM [falling, full curve]"
